“And” between values parts separate entries of the source, which are not always exact repeats. Equal entries are not always repeated. The shares of active, inactive and inconclusive entries below differ from those in the screen. A potency beside an inconclusive call is a rough fit, not a confirmed value. The source made the active and inactive calls. Rule for the calls: active = hit-call score of the fitted dose curve at least 0.9, where 1 is the maximum; inconclusive = response in the unintended direction; inactive = score below 0.9.
Assays:
[1] = target: Retinoic acid receptor RXR-alpha (Homo sapiens) (UniProt P19793); assay: OT_NURR1_NURR1RXRa_0480: Odyssey Thera (OT) 8-hour HEK293T Protein Complementation Assay for Nurr1/retinoid X receptor (RXR) (AID 2283385)
Summary of the method: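 Read-out: fluorescence from protein-fragment complementation between Nurr1 and RXRα in human HEK293T cells, 8 h after dosing. DMSO served as negative control; increased signal counted as activity.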

Chains of the proteins cited; added tags and fusions are not shown. Lines headed by an entry give the natural chain unless they say otherwise; changes in a name come on top.
UniProt P19793: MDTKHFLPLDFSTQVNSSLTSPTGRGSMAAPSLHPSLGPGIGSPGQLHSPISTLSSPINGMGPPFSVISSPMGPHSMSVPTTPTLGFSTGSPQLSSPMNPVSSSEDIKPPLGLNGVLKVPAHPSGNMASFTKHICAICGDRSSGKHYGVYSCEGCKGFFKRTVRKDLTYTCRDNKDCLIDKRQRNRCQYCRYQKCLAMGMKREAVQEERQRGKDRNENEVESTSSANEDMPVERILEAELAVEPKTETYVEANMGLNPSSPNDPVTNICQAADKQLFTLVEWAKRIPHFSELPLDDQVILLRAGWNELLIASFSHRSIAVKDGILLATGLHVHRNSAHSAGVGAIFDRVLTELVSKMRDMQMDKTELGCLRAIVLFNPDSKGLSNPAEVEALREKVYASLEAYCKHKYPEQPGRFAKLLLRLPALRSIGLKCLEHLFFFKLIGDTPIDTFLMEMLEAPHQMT
UniProt P04637, whole entry, looked up: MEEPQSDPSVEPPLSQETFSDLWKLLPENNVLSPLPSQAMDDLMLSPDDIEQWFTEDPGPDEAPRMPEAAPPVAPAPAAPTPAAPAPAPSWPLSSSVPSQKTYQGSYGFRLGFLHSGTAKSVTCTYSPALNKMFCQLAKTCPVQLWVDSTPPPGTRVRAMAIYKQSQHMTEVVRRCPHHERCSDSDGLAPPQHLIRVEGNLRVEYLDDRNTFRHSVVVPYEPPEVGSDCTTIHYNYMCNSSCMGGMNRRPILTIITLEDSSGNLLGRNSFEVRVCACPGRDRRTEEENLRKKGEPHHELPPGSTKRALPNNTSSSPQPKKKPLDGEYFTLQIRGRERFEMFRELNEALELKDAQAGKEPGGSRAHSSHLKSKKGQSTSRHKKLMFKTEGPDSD

[2] = target: Retinoic acid receptor RXR-alpha (Homo sapiens) (UniProt P19793); assay: OT_NURR1_NURR1RXRa_1440: Odyssey Thera (OT) 24-hour HEK293T Protein Complementation Assay for Nurr1/retinoid X receptor (RXR) (AID 2283386)
Summary of the method: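 Fluorescence PCA read-out; HEK293T; 24 h post-dose; bait/prey fused to reporter fragments; gain-of-signal fit vs DMSO negative control.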

[3] = TOX21_p53_BLA_p2_viability: Viability Assessment in the Tox21 HCT-116 p53 Agonism Beta-lactamase Assay, Phase 2 (AID 2283591);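 note: compound exposure lasted 16 h at 37 °C; actives lower the ATP signal meaning cytotoxicity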
Summary of the method: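 HCT-116 p53-bla cells (4000/well) rested 5 h at 37C, then received compounds in DMSO (217-fold dilution) for 16 h at 37C, 5% CO2. After the CCF4 read, CellTiter-Glo was added; ATP luminescence was read after 30 min at room temperature.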

[4] = target: Cellular tumor antigen p53 (Homo sapiens) (UniProt P04637); assay: TOX21_p53_BLA_p2_ratio: Tox21 HCT-116 p53 Agonism Beta-lactamase Assay, Ratio, Phase 2 (AID 2283592)
Summary of the method: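 DMSO-normalized, positive-direction endpoint derived from the 460 nm/530 nm FRET ratio in HCT116 p53 beta-lactamase reporter cells exposed 16 h at 37C and loaded with CCF4-AM for 2 h.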

[5] = TOX21_p53_BLA_p3_viability: Viability Assessment in the Tox21 HCT-116 p53 Agonism Beta-lactamase Assay, Phase 3 (AID 2283593);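 note: cells exposed to compound for 16 h before reading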
Summary of the method: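 HCT-116 cells (4000/well) rested 5 h at 37C, then got DMSO compounds by pin tool (217-fold dilution) for 16 h at 37C, 5% CO2. After the bla read, CellTiter-Glo was added and luminescence read at 30 min, room temperature.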

[6] = target: Cellular tumor antigen p53 (Homo sapiens) (UniProt P04637); assay: TOX21_p53_BLA_p3_ratio: Tox21 HCT-116 p53 Agonism Beta-lactamase Assay, Ratio, Phase 3 (AID 2283596)
Summary of the method: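 Cells were seeded at 4000/well, rested 5 h at 37C, then dosed with DMSO compound solutions (217-fold dilution) for 16 h. CCF4-AM substrate was loaded for 2 h at room temperature, and the 460/530 nm emission ratio was fitted for gain of signal versus DMSO.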

CC(C)(C)NC(=O)[C@H]1CC[C@H]2[C@@H]3CC[C@H]4NC(=O)C=C[C@]4(C)[C@H]3CC[C@]12C
AC50 [1]: inconclusive: 86.5 µM
AC50 [2]: inconclusive: 7.15 µM
AC50 [3]: inconclusive: 45.7 µM
AC50 [4]: inconclusive: 45.7 µM and inconclusive: 10.3 µM
AC50 [5]: inconclusive: 10.3 µM
AC50 [6]: inconclusive: 45.7 µM and inconclusive: 10.3 µM

CCCC1CCC(=O)O1 (stereo unspecified)
outcome [1]: inactive
AC50 [2]: inconclusive: 50 µM
outcome [3]: inactive
AC50 [5]: inconclusive: 46.1 µM

OB(O)O
AC50 [1]: inconclusive: 30.6 µM and inconclusive: 50 µM
AC50 [2]: inconclusive: 50 µM
AC50 [3]: inconclusive: 9.14 µM
AC50 [4]: inconclusive: 23 µM
AC50 [5]: inconclusive: 46.1 µM and inconclusive: 44.5 µM and inconclusive: 23 µM
AC50 [6]: inconclusive: 46.1 µM
outcome [6]: inactive

COC(=O)CSc1cc(N=c2sc(=O)n3n2CCCC3)c(F)cc1Cl
AC50 [1]: inconclusive: 50 µM
AC50 [2]: inconclusive: 50 µM
outcome [3]: inactive
outcome [5]: inactive
AC50 [6]: inconclusive: 81.2 µM

CCCCCCCCCC(C)=O
AC50 [1]: inconclusive: 51 µM
AC50 [2]: inconclusive: 51 µM
outcome [4]: inactive
AC50 [5]: inconclusive: 32 µM
AC50 [6]: inconclusive: 46.8 µM

OCc1cccc(Oc2ccccc2)c1
outcome [1]: inactive
AC50 [2]: inconclusive: 50 µM
outcome [3]: inactive
AC50 [5]: inconclusive: 46.1 µM
AC50 [6]: inconclusive: 46.7 µM
